# Laboratory results: patent US20210030654A1, “ANTIOXIDANT COMPLEX AND COMPOSITION FOR FORMING SAME” (priority 2018, published 2021)
# The name of at least one read-out is uncertain.
# Experiment: Solubility
# Assay type: physicochemical
# Details: simple mixture of dihydroquercetin and solubilizer (no thermal blending)
# Source text: The simple mixture is not preferable for a preparation method of the antioxidant complex according to the inventive concept.
smiles,measurement,value
"O=C1c2c(O)cc(O)cc2O[C@H](c2ccc(O)c(O)c2)[C@H]1O [dihydroquercetin powder, dihydroquercetin]",solubility in the solubilizer,not soluble in the solubilizer
